Experimental data published in PMC4741384 (2016).
Results are given in words; binding and its absence hold for the method and conditions named. Binding seen in cells or lysates may run through a third protein. Some binding calls cover weakened binding; strength is not graded here.

Protein sequences, listed by entry. Tags and fused reporters are not part of them.
UniProt O95271: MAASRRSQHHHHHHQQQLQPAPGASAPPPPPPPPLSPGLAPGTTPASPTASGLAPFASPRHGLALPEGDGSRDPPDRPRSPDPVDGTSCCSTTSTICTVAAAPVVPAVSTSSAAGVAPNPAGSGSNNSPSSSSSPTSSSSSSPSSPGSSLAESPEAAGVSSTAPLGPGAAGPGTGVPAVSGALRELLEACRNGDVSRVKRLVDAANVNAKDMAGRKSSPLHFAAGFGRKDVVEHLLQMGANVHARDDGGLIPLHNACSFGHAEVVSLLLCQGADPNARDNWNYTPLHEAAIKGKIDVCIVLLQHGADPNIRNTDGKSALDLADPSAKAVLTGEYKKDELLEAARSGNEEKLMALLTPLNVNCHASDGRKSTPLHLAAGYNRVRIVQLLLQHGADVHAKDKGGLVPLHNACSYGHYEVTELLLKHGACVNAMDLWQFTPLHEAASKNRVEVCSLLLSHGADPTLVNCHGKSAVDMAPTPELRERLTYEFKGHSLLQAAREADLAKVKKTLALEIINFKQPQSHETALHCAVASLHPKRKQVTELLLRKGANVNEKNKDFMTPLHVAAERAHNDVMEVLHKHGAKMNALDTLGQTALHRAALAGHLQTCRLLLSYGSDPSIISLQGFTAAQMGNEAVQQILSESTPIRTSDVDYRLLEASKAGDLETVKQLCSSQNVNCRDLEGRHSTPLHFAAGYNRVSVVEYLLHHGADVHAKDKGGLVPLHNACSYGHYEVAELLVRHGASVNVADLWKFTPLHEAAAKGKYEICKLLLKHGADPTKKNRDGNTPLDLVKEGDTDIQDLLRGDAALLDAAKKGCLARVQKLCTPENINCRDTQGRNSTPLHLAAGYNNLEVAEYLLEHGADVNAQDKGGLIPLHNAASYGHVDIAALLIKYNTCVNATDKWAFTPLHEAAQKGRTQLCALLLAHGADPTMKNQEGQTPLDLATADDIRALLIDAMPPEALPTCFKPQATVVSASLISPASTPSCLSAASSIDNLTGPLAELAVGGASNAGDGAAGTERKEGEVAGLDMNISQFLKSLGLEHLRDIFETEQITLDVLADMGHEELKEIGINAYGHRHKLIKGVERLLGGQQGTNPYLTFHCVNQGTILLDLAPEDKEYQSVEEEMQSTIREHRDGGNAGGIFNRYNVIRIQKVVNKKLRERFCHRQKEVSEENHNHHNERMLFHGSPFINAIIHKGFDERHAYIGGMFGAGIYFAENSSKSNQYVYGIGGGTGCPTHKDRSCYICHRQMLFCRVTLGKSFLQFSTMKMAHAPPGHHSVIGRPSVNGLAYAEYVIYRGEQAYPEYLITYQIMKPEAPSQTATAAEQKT

Target: FN-TNKS1 (flag tag and NLS signal, pCDNA 3.1) (human) (UniProt O95271)
Test: co-IP; HEK293T cells co-transfected with mCherry-lacR constructs and FN-TNKS1; extracts in TENT buffer (25 mM Tris-HCl 7.5, 2 mM EDTA, 150 mM NaCl, 1% Triton X-100); immunoprecipitation with anti-Flag M2, blot with anti-lacR

binding | Binder
binds | mCherry-lacR-BRCTs (MDC1 1881-2089aa) (domain or fragment, UniProt Q14676 1881-2089) LRRTKLNQESTAPKVLFTGVVDARGERAVLALGGSLAGSAAEASHLVTDRIRRTVKFLCALGRGIPILSLDWLHQSRKAGFFLPPDEYVVTDPEQEKNFGFSLQDALSRARERRLLEGYEIYVTPGVQPPPPQMGEIISCCGGTYLPSMPRSYKPQRVVITCPQDFPHCSIPLRVGLPLLSPEFLLTGVLKQEAKPEAFVLSPLEMSST
binds | mCherry-lacR-interII (MDC1 800-1130aa) (domain or fragment, UniProt Q14676 800-1130) MGIQGRGRQTVDKVMGIPKETAERVGPERGPLERETEKLLPERQTDVTGEEELTKGKQDREQKQLLARDTQRQESDKNGESASPERDRESLKVEIETSEEIQEKQVQKQTLPSKAFEREVERPVANRECDPAELEEKVPKVILERDTQRGEPEGGSQDQKGQASSPTPEPGVGAGDLPGPTSAPVPSGSQSGGRGSPVSPRRHQKGLLNCKMPPAEKASRIRAAEKVSRGDQESPDACLPPTVPEAPAPPQKPLNSQSQKHLAPPPLLSPLLPSIKPTVRKTRQDGSQEAPEAPLSSELEPFHPKPKIRTRKSSRMTPFPATSAAPEPHPS
